Results are given in words; binding and its absence hold for the method and conditions named. Binding seen in cells or lysates may run through a third protein. These calls come from enrichment with a bait or labelling near it, and not all partners need be listed.

Sequences and labels used below:
B1: ADI1 (protein, UniProt I3LEI8 1-179)
chain: MVQAWYMDESADDPRLPHRTEPARPVGLDQLRRLGVLYWKLDADKYENDPELEKIRNERNYSWMDIITICRDKLPNYEEKIKTFYEEHLHLDDEIRYILDGSGYFDVRDQDDRWIRIFMEKGDLITLPAGIYHRFTLDEQNYVKAMRLFVGDPVWTPYNRPADHLEARGQYLRFLAQST
B2: ITIH2 (protein, UniProt O02668 54-691)
chain: EGVDQVTLYSYKVQSTITSRMANTVIQTKVVNHSPEPQDVVFDIQIPKGAFISNFSMTVDGTKFTSSIKEKTVGRALYWQARAKGKTAGLVRSRALDMENFKTEVNIAPGAKVQFELHYQEVKWRNLGSYEHRIHLQPGRLAKHLEVDVQIIEPQGLRFLHVLDTFDGHFDGVPVVVKGQQKAHVAFKPTVAQQRKCPSCSETAVDGELVVMYDVNREQKAGELQLFNGYFVHFFAPESMDPIPKNILFVIDVSGSMWGIKMKQTVEAMKTILDDLRAEDQFSLVDFNHNIRTWRNDLVSATKTQVADAKTYIEKIQPSGGTNINEALLRAIFILNEANNLGLLDPNSVSLIILVSDGDPTVGELQLSKIQKNVKQNIQDNVSLFSLGIGFDVDYDFLKRLSNDNRGMAQRIYGNQDTASQLKKFYNQVSTPLLRNVQFNYPQASVTDVTQNSFPNYFGGSEIVVAGKFNPEKLEQLQGIITATSANVELVLETLAEMDGLEAFLAKDRHADPDFTKKLWAYLTINQLLDERSRAPSAAVKKKITKSILQMSLDHHIVTPLTAMVVENEAGDERMLADAPPQDQSCCSGTLNYGRKVTPNSLPSWVNPLPTPRVPLPAVGPSVIEATPPPHVMRVEND
B3: USH1G (protein, UniProt F1RVV1 1-461)
chain: MNDQYHRAARDGYLELLKEATRKELNAPDEDGMTPTLWAAYHGNLESLRLIVSRGGDPDKCDIWGNTPLHLAASNGHLHCLSFLVSFGANIWCLDNDYHTPLDMGAMKGHMECVRYLDSIAAKQSSLNPKLVGKLKDKAFREAERRIRECAKMQRKHHERMERRYRRELAERSDTLSFSSLTSSTLSRRLQHLALGSHVPYSQATLHGTAKGKTKIQRKLERRKQGGEGTFKISEDGRKSVRSLSGLQLGSDVMFVRQGTYANPKEWGRAPLRDMFLSDEDSVSRATLAAEPAHSEVSTDSGHDSLFTRPGLGTMVFRRNYLSSGLHGLGREDAALDGGGTPRARLQSSPSLDDDSLGSANSLQDRSCGEELPWDELDLGLDEDLEPETSPLETFLASLHMEDFTPLLRQEKIDLEALMLCSDLDLRSISVPLGPRKKIMGAVRRRRQTLERPPALEDTEL
B4: MX dynamin like GTPase 2 (protein, UniProt A7VK00 1-711)
chain: MPKPRMSWPYQRHRQASSPPHPHKEMNFFPQQPLPLGAGPGQMTFPLNWQMGGKDLTKGLNMLTLSPQQPGGKSGQQTSKGPENNLYSPFEEKVRPCIDLIDSLRALGVEQDLALPTIAVIGDQSSGKSSVLEALSGVPLPRGSGIITRCPLALRLKKKECPWQGRISYRKVELQLQDPSQVEREIRKAQDAIAGSGVGISHELISLEVTSPEVPDLTLIDLPGITRVAVGNQPQDIGLQIKALIRKYIQEQQTINLVVVPCNVDIATTEALRMAQEVDPEGDRTIGILTKPDLVDTGAEKVVLNVMQNLTYHLKKGYMIVKCRGQQEILNKLSLAEATKREIAFFHSHPHFRILLEEGKATVPRLAERLTVELIGHISKSLPLLFSQIKEIHQSATEELRLCGASVPSNDADKMFFLIEKIKVFNQDIENLAEGEEIVKEKEARLYNKIREEFKSWIVTLDCNSKKVKNIIHEEVSKYDRQYRGKELMGFVSYKTFESIVRQYLEELVDPALGMLQTVVEIVRQTFSDTAQKNFGEFSNLNQTTQNKVDSIAARAAERAEGLIRLQFRMEQLVFCQDDIYRVDLKAVREELFNPVAEHPQSLQLRLPFVNGPSPVSSITEIGVHVNAYFMGTSQRLANQIPFIIQYCVLQESRDHLQKAMMQMLQGREQYSWLLQEESHTSAKRHFLKEKIHRLAEARHTLSKFAQSLQG
B5: ALDH2 (protein, UniProt Q2XQV4 22-521)
chain: SAAPTQAVPAPNQQPEIFYNQIFINNEWHDAISKKTFPTVNPSTGDVICHVAEGDKEDVDRAVEAARAAFQLGSPWRRLDASDRGRLLNRLADLIERDRTYLAALETLDNGKPYVISYLVDLDMVLKCLRYYAGWADKYHGKTLPIDGDYFSYTRHEPVGVCGQIIPWNFPLLMQAWKLGPALATGNVVVMKVSEQTPLTALYVANLIKEAGFPPGVVNIVPGYGPTAGAAIASHEDVDKVAFTGSTEVGHLIQVAAGKSNLKRVTLELGGKSPNIIMSDADMDWAVEQAHFALFFNQGQCCCAGSRTFVQEDIYAEFVERSVARARSRVVGNPFDSRTEQGPQIDETQFKKILGYIKSGKEEGAKLLCGGGAAADRGYFIQPTVFGDVQDGMTIAKEEIFGPVMQILKFKTIEEVIGRANNSKYGLAAAVFTKDLDKANYLSQALQAGTVWVNCYDVFGAQSPFGGYKLSGSGRELGEYGLQAYTEVKTVTVKVPQKNS

The target in the assay is porcine circovirus type 2 capsid protein (porcine circovirus type 2, strain HZ0201). As to the kind of experiment: affinity purification with mass spectrometry; lysates (NP-40 buffer) of PK-15 cells infected with PCV2 at MOI 1.0 for 48 h, immunoprecipitated with purified anti-Cap IgG and protein A/G agarose; silver-stained gel, LC-MS; mock-infected cells as negative control.
Take B1: the binding entry was “binds”.

On to B2, for which the binding entry was “binds”.

Turning to B3, the binding result is “binds”.

For the molecule B4, the binding entry is listed as “binds”.

Consider B5, for which the binding result is listed as “binds”.

These data come from article PMC7283462.
